Assay results as given in patent US9309242B2, “Substituted pyrido[2,3-b]pyrazines as FGFR kinase inhibitors” (priority 2011, dated 2016).
The structures given here were assigned with low confidence; some may be wrong.

Sequences of proteins named here, by UniProt entry; tags and fusion partners are left off. Residues count along the entry.
UniProt P11362, whole entry: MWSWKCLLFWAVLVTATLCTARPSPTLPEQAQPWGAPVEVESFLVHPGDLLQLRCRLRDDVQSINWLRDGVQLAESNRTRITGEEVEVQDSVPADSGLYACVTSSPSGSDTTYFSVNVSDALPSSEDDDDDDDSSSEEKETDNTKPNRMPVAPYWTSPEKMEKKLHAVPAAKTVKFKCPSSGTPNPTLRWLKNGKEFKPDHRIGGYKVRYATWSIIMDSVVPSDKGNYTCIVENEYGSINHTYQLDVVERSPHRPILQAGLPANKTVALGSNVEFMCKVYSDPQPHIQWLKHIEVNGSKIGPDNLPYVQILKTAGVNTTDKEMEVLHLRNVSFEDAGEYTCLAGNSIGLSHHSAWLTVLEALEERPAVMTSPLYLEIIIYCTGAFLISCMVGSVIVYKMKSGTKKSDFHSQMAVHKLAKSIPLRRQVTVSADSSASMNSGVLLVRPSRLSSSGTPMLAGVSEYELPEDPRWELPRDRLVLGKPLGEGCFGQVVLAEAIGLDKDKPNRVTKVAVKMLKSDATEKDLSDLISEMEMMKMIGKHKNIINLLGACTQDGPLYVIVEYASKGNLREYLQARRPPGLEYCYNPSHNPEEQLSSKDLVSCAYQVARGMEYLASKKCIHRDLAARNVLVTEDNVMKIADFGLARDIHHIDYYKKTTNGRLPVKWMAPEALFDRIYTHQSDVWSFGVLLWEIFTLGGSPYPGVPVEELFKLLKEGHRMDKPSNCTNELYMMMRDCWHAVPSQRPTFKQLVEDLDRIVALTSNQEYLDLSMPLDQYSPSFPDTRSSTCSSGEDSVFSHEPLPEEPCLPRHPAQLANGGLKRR
UniProt P11362, 22-822 limits assumed: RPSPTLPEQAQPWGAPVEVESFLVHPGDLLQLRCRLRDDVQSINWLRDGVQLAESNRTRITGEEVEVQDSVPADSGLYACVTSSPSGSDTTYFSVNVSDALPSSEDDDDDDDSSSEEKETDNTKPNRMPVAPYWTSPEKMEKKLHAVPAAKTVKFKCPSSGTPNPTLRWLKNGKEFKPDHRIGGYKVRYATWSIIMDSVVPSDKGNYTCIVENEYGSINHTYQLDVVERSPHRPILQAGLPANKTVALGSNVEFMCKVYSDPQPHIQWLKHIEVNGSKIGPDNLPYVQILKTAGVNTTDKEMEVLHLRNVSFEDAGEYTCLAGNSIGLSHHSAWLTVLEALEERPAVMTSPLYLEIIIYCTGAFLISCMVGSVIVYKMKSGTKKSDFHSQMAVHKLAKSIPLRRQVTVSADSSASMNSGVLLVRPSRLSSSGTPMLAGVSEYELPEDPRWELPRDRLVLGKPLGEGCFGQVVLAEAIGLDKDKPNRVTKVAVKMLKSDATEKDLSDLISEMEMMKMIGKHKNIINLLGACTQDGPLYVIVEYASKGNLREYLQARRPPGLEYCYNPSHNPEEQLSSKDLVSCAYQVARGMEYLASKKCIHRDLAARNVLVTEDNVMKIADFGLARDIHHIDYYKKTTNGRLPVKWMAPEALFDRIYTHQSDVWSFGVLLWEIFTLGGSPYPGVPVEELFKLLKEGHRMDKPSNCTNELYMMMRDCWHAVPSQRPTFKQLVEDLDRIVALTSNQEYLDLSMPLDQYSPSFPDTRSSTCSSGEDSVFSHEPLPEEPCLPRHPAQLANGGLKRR
UniProt P35968, whole entry: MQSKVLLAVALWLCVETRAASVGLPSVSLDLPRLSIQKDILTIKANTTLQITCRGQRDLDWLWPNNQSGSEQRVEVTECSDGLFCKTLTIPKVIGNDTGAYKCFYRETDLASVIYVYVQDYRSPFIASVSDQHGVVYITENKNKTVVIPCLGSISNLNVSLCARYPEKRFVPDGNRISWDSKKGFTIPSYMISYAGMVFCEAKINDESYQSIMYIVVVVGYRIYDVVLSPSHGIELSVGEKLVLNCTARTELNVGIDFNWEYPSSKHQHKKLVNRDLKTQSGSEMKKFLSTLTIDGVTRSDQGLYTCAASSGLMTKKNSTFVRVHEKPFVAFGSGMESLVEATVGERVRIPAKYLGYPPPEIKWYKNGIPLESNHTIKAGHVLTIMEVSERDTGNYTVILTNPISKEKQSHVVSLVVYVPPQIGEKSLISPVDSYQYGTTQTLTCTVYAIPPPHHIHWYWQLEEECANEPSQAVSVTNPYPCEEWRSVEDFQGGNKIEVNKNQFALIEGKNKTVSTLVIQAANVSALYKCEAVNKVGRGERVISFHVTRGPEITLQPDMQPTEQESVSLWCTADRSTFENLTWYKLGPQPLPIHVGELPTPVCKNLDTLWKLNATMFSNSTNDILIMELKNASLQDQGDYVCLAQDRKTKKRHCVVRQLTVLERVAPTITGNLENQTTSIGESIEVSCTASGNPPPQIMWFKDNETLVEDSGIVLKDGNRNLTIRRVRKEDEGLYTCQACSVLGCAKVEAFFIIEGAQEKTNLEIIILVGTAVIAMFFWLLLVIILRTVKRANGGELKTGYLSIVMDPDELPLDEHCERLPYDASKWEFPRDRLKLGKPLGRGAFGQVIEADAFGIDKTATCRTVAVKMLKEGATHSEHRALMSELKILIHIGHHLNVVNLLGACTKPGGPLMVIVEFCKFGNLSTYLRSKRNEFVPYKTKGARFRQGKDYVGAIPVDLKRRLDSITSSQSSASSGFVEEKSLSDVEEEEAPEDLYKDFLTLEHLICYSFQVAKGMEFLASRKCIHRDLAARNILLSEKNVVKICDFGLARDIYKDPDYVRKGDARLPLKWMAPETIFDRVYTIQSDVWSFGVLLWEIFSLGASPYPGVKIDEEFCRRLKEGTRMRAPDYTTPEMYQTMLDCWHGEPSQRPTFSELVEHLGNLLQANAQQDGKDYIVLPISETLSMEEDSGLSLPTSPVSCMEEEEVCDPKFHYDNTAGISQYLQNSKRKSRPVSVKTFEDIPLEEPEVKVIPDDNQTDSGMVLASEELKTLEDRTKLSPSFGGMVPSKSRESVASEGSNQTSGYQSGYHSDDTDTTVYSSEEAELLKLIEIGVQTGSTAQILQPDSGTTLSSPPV
UniProt P35968, 20-1356 limits assumed: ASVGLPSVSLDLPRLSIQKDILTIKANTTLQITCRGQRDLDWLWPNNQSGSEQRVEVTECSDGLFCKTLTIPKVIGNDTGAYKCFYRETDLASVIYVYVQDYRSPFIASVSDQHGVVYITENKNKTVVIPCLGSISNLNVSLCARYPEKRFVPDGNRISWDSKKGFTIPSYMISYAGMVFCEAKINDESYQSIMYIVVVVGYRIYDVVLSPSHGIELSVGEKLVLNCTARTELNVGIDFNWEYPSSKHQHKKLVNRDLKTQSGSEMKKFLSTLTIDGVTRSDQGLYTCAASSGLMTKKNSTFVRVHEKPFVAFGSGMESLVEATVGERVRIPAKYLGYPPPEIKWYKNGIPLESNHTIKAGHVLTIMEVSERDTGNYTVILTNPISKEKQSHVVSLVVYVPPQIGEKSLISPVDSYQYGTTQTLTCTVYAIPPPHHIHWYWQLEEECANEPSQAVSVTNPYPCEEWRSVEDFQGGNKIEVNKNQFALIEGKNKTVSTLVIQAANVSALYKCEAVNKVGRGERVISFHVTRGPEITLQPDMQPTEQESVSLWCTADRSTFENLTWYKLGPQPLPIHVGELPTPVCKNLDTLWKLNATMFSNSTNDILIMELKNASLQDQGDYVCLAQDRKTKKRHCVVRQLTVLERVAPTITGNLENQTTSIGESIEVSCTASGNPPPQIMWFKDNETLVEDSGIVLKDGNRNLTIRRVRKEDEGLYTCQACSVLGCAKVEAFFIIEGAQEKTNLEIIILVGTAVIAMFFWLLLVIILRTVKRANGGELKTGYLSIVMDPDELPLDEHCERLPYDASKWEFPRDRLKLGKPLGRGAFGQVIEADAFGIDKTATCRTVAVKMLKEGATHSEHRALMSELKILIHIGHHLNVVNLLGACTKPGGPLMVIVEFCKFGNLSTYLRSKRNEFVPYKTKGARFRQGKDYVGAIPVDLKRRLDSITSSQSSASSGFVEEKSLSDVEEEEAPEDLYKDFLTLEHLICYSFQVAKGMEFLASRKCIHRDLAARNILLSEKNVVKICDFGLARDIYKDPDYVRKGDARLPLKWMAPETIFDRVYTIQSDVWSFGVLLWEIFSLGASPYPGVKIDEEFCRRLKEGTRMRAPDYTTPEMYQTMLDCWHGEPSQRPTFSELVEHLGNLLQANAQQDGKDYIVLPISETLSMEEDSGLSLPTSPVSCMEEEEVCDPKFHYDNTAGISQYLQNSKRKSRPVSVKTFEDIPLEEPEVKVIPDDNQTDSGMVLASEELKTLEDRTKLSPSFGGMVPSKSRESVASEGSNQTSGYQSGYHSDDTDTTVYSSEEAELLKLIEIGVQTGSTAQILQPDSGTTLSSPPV
UniProt P22607, whole entry: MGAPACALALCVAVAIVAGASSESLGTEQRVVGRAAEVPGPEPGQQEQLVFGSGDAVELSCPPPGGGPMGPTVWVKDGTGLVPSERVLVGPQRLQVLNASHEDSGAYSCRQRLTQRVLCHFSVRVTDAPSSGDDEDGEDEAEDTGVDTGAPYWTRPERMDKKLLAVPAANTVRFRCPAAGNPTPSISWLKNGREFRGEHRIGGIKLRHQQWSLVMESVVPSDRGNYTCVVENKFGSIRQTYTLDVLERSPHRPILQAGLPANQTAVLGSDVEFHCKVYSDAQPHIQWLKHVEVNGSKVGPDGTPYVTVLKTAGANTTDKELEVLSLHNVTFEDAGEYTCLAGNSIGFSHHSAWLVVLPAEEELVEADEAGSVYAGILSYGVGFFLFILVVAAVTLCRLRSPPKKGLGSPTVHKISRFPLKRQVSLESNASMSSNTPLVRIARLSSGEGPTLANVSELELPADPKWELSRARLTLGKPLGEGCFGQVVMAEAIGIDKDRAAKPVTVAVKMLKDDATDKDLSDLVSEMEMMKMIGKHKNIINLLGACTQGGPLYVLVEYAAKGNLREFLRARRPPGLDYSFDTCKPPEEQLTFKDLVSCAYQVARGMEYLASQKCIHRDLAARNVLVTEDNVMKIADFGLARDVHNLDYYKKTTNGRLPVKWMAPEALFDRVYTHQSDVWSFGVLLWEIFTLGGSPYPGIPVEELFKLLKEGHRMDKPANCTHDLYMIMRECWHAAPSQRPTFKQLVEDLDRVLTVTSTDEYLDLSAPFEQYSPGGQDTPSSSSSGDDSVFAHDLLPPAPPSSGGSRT
UniProt P22607, 23-806 limits assumed: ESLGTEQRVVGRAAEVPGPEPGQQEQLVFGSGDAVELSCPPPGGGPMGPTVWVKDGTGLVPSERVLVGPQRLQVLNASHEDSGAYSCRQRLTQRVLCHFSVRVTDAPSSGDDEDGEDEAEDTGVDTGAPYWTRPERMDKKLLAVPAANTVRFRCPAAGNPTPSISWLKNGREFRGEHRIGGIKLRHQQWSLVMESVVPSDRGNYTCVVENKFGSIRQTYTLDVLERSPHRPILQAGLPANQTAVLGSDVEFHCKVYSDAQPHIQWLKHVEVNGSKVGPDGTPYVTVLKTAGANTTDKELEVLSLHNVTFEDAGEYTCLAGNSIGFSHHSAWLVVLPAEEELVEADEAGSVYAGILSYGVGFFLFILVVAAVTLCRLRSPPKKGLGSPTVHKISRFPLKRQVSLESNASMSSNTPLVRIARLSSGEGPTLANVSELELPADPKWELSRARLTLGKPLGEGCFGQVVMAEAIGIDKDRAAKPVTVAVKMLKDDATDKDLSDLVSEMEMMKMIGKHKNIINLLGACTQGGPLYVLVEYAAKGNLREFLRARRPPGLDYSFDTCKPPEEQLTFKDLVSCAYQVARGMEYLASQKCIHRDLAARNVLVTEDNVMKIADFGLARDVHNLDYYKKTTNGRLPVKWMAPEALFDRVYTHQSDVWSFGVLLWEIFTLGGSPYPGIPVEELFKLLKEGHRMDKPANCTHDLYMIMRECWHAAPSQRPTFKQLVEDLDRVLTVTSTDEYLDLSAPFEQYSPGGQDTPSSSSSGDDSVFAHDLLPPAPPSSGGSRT

Tests used:
[1] = system: Ba/F3-FGFR3-transfected cells; assay: Ba/F3-FGFR3 (plus IL3) cellular proliferation assay, counterscreen with 10 ng/ml murine IL3; assay type: cell-based; conditions: plus IL3 (10 ng/ml murine IL3, counterscreen)
Description: Ba/F3-FGFR3 (Minus IL3 or Plus IL3) (Cellular Proliferation Assay)
(§1) In a 384 well plate, 100 nl of compound dilution in DMSO was sprayed before adding 50 μl cell culture medium (phenol red free RPMI-1640, 10% FBS, 2 mM L-Glutamine and 50 μg/ml Gentamycin) containing 20000 cells per well of Ba/F3-FGFR3-transfected cells. Cells were put in an incubator at 37° C. and 5% CO2. After 24 hours, 10 μl of Alamar Blue solution (0.5 mM K3Fe(CN)6, 0.5 mM K4Fe(CN)6, 0.15 mM Resazurin and 100 mM Phosphate Buffer) was added to the wells, incubated for 4 hours at 37° C. and 5% CO2 before RFU's (Relative Fluorescence Units) (ex. 540 nm., em. 590 nm.) were measured in a fluororescence plate reader.
(§2) As a counterscreen the same experiment was performed in the presence of 10 ng/ml murine IL3.

[2] = target: FGFR4 (h) (Homo sapiens, UniProt P22455); assay: FGFR4 (enzymatic assay), TR-FRET; assay type: biochemical; conditions: average values if tested multiple times
[3] = target: Ba/F3-FGFR4-transfected cells (Homo sapiens, UniProt P22455); assay: Ba/F3-FGFR4 cellular proliferation assay, Alamar Blue; assay type: cell-based
[4] = target: FGFR1 (h) (Homo sapiens, UniProt P11362); assay: FGFR1 (enzymatic assay), TR-FRET; assay type: biochemical; conditions: average values if tested multiple times
[5] = target: Ba/F3-KDR-transfected cells (Homo sapiens, UniProt P35968); assay: Ba/F3-KDR (minus IL3) cellular proliferation assay, Alamar Blue; assay type: cell-based
Description: (§3) Ba/F3-KDR (Minus IL3 or Plus IL3) (Cellular Proliferation Assay)
as §1, with “n1” for “nl”, “Ba/F3-KDR-transfected” for “Ba/F3-FGFR3-transfected”, “reader. […]” for “reader.”

[6] = target: Ba/F3-FGFR1-transfected cells (Homo sapiens, UniProt P11362); assay: Ba/F3-FGFR1 (minus IL3) cellular proliferation assay, Alamar Blue; assay type: cell-based
[7] = target: Ba/F3-FGFR3-transfected cells (Homo sapiens, UniProt P22607); assay: Ba/F3-FGFR3 (minus IL3) cellular proliferation assay, Alamar Blue; assay type: cell-based
[8] = system: Ba/F3-FGFR1-transfected cells; assay: Ba/F3-FGFR1 (plus IL3) cellular proliferation assay, counterscreen with 10 ng/ml murine IL3; assay type: cell-based; conditions: plus IL3 (10 ng/ml murine IL3, counterscreen)
Description: Ba/F3-FGFR1 (Minus IL3 or Plus IL3) (Cellular Proliferation Assay)
as §1, with “Ba/F3-FGFR1-transfected” for “Ba/F3-FGFR3-transfected”
as §2

[9] = target: KDR (h) (Homo sapiens, UniProt P35968); assay: KDR (VEGFR2) (enzymatic assay), TR-FRET; conditions: average values if tested multiple times
[10] = system: Ba/F3-KDR-transfected cells; assay: Ba/F3-KDR (plus IL3) cellular proliferation assay, counterscreen with 10 ng/ml murine IL3; assay type: cell-based; conditions: plus IL3 (10 ng/ml murine IL3, counterscreen)
Description: as §3
as §1, with “n1” for “nl”, “Ba/F3-KDR-transfected” for “Ba/F3-FGFR3-transfected”
as §2

[11] = target: FGFR2 (h) (Homo sapiens, UniProt P21802); assay: FGFR2 (enzymatic assay), TR-FRET; assay type: biochemical; conditions: average values if tested multiple times
[12] = target: FGFR3 (h) (Homo sapiens, UniProt P22607); assay: FGFR3 (enzymatic assay), TR-FRET; assay type: biochemical; conditions: average values if tested multiple times
[13] = system: Ba/F3-Flt3-transfected cells; assay: Ba/F3-Flt3 (plus IL3) cellular proliferation assay, counterscreen with 10 ng/ml murine IL3; assay type: cell-based; conditions: plus IL3 (10 ng/ml murine IL3, counterscreen)
Description: Ba/F3-Flt3 (Minus IL3 or Plus IL3) (Cellular Proliferation Assay)
as §1, with “Ba/F3-Flt3-transfected” for “Ba/F3-FGFR3-transfected”
as §2

[14] = target: Ba/F3-Flt3-transfected cells (Homo sapiens, UniProt P36888, cells depend on it, form not given); assay: Ba/F3-Flt3 (minus IL3) cellular proliferation assay, Alamar Blue; assay type: cell-based

| Compound | BAF3-FGFR3 (PLUS IL3) pIC50 [1] | FGFR 4 pIC50 [2] | BAF3-FGFR4 pIC50 [3] | FGFR 1 pIC50 [4] | BAF3-KDR (MIN IL3) pIC50 [5] | BAF3-FGFR1 (MIN IL3) pIC50 [6] | BAF3-FGFR3 (MIN IL3) pIC50 [7] | BAF3-FGFR1 (PLUS IL3) pIC50 [8] | VEGFR 2 (KDR) pIC50 [9] | BAF3-KDR (PLUS IL3) pIC50 [10] | FGFR 2 pIC50 [11] | FGFR 3 pIC50 [12] | BAF3_FLT3 (PLUS IL3) pIC50 [13] | BAF3-FLT3 (MIN IL3) pIC50 [14] |
| --- | --- | --- | --- | --- | --- | --- | --- | --- | --- | --- | --- | --- | --- | --- |
| COc1cc(OC)cc(N(Cc2nc3ccccc3[nH]2)c2ccc3ncc(-c4cnn(C)c4)nc3n2)c1 | <5 | 8.90 | 7.06 | 8.73 | 5.83 | 7.21 | ~7.64 | <5 | 7.88 | <5 | 8.70 | 8.92 |  |  |
| COc1cc(OC)c(F)c(N=c2ccc3ncc(-c4cnn(C)c4)nc3n2CC(O)C(F)(F)F)c1F (centres unmarked) | <5 | 9.03 | 7.55 | 9.35 | 6.05 | 8.10 | 8.05 | <5 | 7.93 | <5 | 8.67 | 9.05 | <5 | <5 |
